Measurements reported in PubChem BioAssay AID493014 (National Center for Advancing Translational Sciences (NCATS), 2011).
This is one part of the list. The main result of the screen is listed elsewhere. These columns were measured beside it and carry no call. Compounds called inactive in the main read-out are mostly missing here. Potencies come from curve fits of mixed quality, noted in brackets.

Assay: qHTS Assay to Find Inhibitors of Chronic Active B-Cell Receptor Signaling
Details: ABC-DLBCL IkBa-CBG/CBR reporter, luminescence ratio (green luciferase fused to IkBa over red control in TMD8 lymphoma cells), 4 h
In short: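 Cell line TMD8 (human ABC DLBCL), stably expressing tet-inducible CBG68-IkBa fusion and CBR; IMDM/0.5% FBS; cpd up to 46 uM; dox induction, 4 h, 37C/5% CO2; dual luminescence; green/red ratio; MG132 control.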

[1] = measured here: CBR red luminescence, cell number
[2] = measured here: IkBa-CBG green luminescence

| SMILES | AC50 [1] | AC50 [2] |
| --- | --- | --- |
| Cc1nc(C)n(CC(O)COc2ccc3c(c2)CCC3)n1 (configuration not stated) | 6.51 µM [rising, single point] | – |
| COc1ccc(Br)cc1/C=C/c1ccc2cccc(O)c2n1 | 35.5 µM [rising, single point] | – |
| CCc1noc(C)c1C(=O)Nc1cc(C(F)(F)F)ccc1-n1cncn1 | 25.9 µM [rising, single point] | – |
| Cc1ccc(C(=O)Nc2cc3ccccc3oc2=O)cc1 | 1.12 µM [falling, full curve, poor fit] | – |
| Cc1cccc(/C(N)=N/OC(=O)c2ccc(F)cc2)c1 | 4.61 µM [rising, single point] | – |
| CC(C)(C)c1ccc(C(=O)N2CCN(C(=O)C3CCCCC3)CC2)cc1 | 22.4 µM [rising, partial curve, poor fit] | – |
| COc1cccc(CNC(=O)CCC2CCCN(C(=O)c3cccc(Cl)c3)C2)c1 (configuration not stated) | 11.2 µM [rising, single point] | – |
| COc1ccc(CNC(=O)CC2N=C3c4ccccc4N=C(SCC(=O)Nc4ccc(C(C)C)cc4)N3C2=O)cc1 (configuration not stated) | 35.5 µM [falling, single point] | – |
| O=C(CCl)N(Cc1ccccc1)c1ccccc1 | 2.24 µM [falling, partial curve] | – |
| O=C(NC(=O)c1ccccc1Cl)Nc1ccc(-c2cnco2)cc1 | 1.58 µM [falling, full curve, poor fit] | – |
| CCOc1ccccc1OCC(=O)NN=C1CCCC(=O)C1 | 29.1 µM [rising, single point] | 29.1 µM [falling, single point] |
| COc1cc(S(=O)(=O)N2CCOCC2)ccc1NC(=O)COC(=O)C12CC3CC(CC(C3)C1)C2 | 1.46 µM [rising, full curve, poor fit] | – |
| N=c1sccn1CC(=O)Nc1cc(Cl)ccc1Oc1ccccc1 | 20.6 µM [falling, single point] | – |
| O=C1N=C(N2CCCC2)S/C1=C\c1cccc(Br)c1 | 0.164 µM [rising, full curve, poor fit] | – |
| COc1ccccc1-c1c(C)nn2c(C)c(C(C)=O)cnc12 | 29.1 µM [rising, partial curve, poor fit] | – |
| C/C(=N\NC(=O)c1cccc(N/N=C(\C)c2ccco2)c1)c1ccco1 | 10 µM [falling, partial curve] | – |
| CC(=O)Nc1ccc(C2=NN(c3ccccc3)C(c3cccs3)C2)cc1 (configuration not stated) | 35.5 µM [falling, single point] | – |
| CC1CCC/C=C/C(=O)c2c(O)cc(O)cc2CC(=O)O1 (configuration not stated) | 1.58 µM [falling, full curve] | 35.5 µM [rising, partial curve, poor fit] |
| CCCN(CCC)S(=O)(=O)c1ccc(C(=O)Nc2nnc(-c3cc(OC)cc(OC)c3)o2)cc1 | 3.66 µM [falling, single point] | – |
| COC(=O)c1[nH]c(C)c(/C(O)=C2\C(=O)C(=O)N(CCN3CCOCC3)C2c2cccnc2)c1C (configuration not stated) | 6.51 µM [rising, single point] | – |
| Cc1cc(C)c(OCC(=O)OCC(=O)NC2CCCCCCC2)c(C)c1 | 15.8 µM [rising, partial curve, poor fit] | – |

| SMILES | AC50 [1] | AC50 [2] |
| --- | --- | --- |
| Cc1nc(CSc2nsc(C)c2C#N)cs1 | 10 µM [falling, partial curve] | – |
| Cc1ccc(-n2nc3c(N4CCC(C(=O)NCc5ccccc5C)CC4)nnc(C)c3c2C)cc1 | 1.12 µM [falling, partial curve, poor fit] | – |
| N#C/C(=N\Nc1ccc(S(=O)(=O)N2CCCCC2)cc1)C(N)=S | – | 23.1 µM [rising, partial curve, poor fit] |
| O=C(NCC1CCCO1)c1cc(-c2ccncc2)nc2ccc(S(=O)(=O)N3CCOCC3)cc12 (configuration not stated) | 6.51 µM [rising, single point] | – |
| CC(C)CCOC(=O)C[N+](C)(C)CCOC1CC2CCC1(C)C2(C)C (configuration not stated) | 12.6 µM [falling, partial curve] | – |
| CCN(CC)C(=O)C1CCCN(C/C=C/c2ccccc2)C1 (configuration not stated) | 18.4 µM [falling, partial curve] | – |
| COc1ccc(CC(=O)Nc2ccc(-c3nnc(-c4ccccc4)o3)cc2)cc1OC | 0.013 µM [falling, full curve] | – |
| CCOC(=O)C(Sc1ncc(C#N)c(N)n1)C(C)C (configuration not stated) | 2.31 µM [falling, partial curve, poor fit] | – |
| CCn1ccc2c(OCC(=O)Nc3ccc(C)c(Cl)c3)cccc2c1=O | 11.2 µM [falling, partial curve, poor fit] | – |
| Cc1csc2sc(-c3ccnc(SCC(=O)NCc4ccccc4)n3)c(C)c12 | 17.8 µM [rising, partial curve, poor fit] | 3.98 µM [falling, partial curve, poor fit] |
| CCc1ccc2[nH]c(=O)c(CN(Cc3ccccc3OC)Cc3nnnn3Cc3ccco3)cc2c1 | 32.6 µM [falling, single point] | – |
| COc1ccc(-n2ncc3c(NCc4cccs4)ncnc32)cc1 | 0.158 µM [rising, full curve, poor fit] | – |
| COc1ccc(C(CNC(=O)c2cccc(NC(=O)c3cccs3)c2)N2CCCC2)cc1 (configuration not stated) | 25.9 µM [falling, partial curve, poor fit] | – |
| COc1ccc(/C=C2\C(=O)NCC(=O)N2C)cc1 | 0.708 µM [rising, full curve, poor fit] | – |
| Cc1cc(C)cc(NC(=O)CSc2nc3c(oc4ccccc43)c(=O)n2-c2ccccc2)c1 | 0.231 µM [rising, full curve, poor fit] | – |
| CCN(CC)C(=O)c1sc2c(c1C)c(=O)n(CCc1ccccc1)c(=O)n2Cc1ccc(C)cc1 | 7.08 µM [falling, partial curve] | 10 µM [rising, partial curve, poor fit] |
| CN(CCCC(=O)Nc1ccncc1)S(=O)(=O)c1ccc(Cl)cc1 | 1.41 µM [falling, partial curve, poor fit] | – |
| N#CCCN(C(=O)COC(=O)CNC(=O)c1ccc(-c2ccccc2)cc1)c1ccc(F)cc1 | 29.1 µM [falling, partial curve, poor fit] | – |
| COc1ccc(S(=O)(=O)Nc2ccccc2OC)cc1N=Nc1c(O)[nH]c(=S)[nH]c1=O | 0.116 µM [rising, full curve, poor fit] | – |
| C/C(=N\OCC(=O)NCC(F)(F)F)c1cc2ccccc2o1 | 29.1 µM [rising, single point] | – |
| CC(=O)N(CC1CCCO1)C1(C(=O)NC2CCCC2)CCCCC1 (configuration not stated) | 1.84 µM [falling, single point] | – |

Single records, as listed above.
`CCN(CC)C(=O)c1sc2c(c1C)c(=O)n(CCc1ccccc1)c(=O)n2Cc1ccc(C)cc1` is listed as AC50 [1]: 7.08 µM [falling, partial curve]; AC50 [2]: 10 µM [rising, partial curve, poor fit]
`O=C(NCC1CCCO1)c1cc(-c2ccncc2)nc2ccc(S(=O)(=O)N3CCOCC3)cc12` (configuration not stated) is listed as AC50 [1]: 6.51 µM [rising, single point]
`Cc1nc(CSc2nsc(C)c2C#N)cs1` is listed as AC50 [1]: 10 µM [falling, partial curve]

Following part.

| SMILES | AC50 [1] | AC50 [2] |
| --- | --- | --- |
| COC(=O)C1=C(COc2ccc(C=O)cc2OC)NC(=O)NC1c1cc(C)ccc1C (configuration not stated) | 1.16 µM [rising, full curve, poor fit] | – |
| COc1ccc(NS(=O)(=O)c2cccc(NC(=O)NCCCl)c2)cc1 | 35.5 µM [rising, single point] | – |
| Brc1cccc(-c2n[nH]c(-c3ccccc3)n2)c1 | 7.31 µM [falling, partial curve, poor fit] | – |
| O=C(c1ccc(Cn2c(=S)[nH]c3cc4c(cc3c2=O)OCO4)cc1)N1CCN(c2ncccn2)CC1 | 7.08 µM [falling, partial curve, poor fit] | – |
| O=C(COC(=O)CCC1CCCC1)Nc1nc2c(F)c(F)c(F)cc2s1 | 7.31 µM [rising, partial curve, poor fit] | – |
| OC(CCN1CCCCC1)c1ccc(-c2ccccc2)cc1 (configuration not stated) | 8.91 µM [rising, single point] | – |
| CCOC(=O)c1[nH]ncc1CN1CCN(Cc2ccc(C)cc2)C(CCO)C1 (configuration not stated) | 6.31 µM [rising, single point] | – |
| C[C@@H](C(=O)N1CCN(c2ccccc2)CC1)N1C(=O)C2CC=CCC2C1=O (some centres not stated) | 13 µM [rising, single point] | – |
| CCNC(=S)N/N=C(\C)c1ccc2c(c1)OCCO2 | 0.291 µM [falling, full curve, poor fit] | 20.6 µM [falling, single point] |
| Cc1nc(CCNC(=O)CC2C(=O)NCCN2Cc2ccc(F)cc2)sc1C (configuration not stated) | 25.1 µM [rising, single point] | 35.5 µM [falling, single point] |
| COc1ccccc1NC(=O)/C=C\c1ccco1 | 11.2 µM [falling, partial curve, poor fit] | – |
| Cc1cccc(NNC(=O)C(=O)NNc2cccc(C)c2)c1 | 31.6 µM [rising, single point] | – |
| NC(=S)N/N=C/c1ccc(-c2cc(Cl)ccc2Cl)o1 | 0.0651 µM [rising, full curve, poor fit] | – |
| CCOC(=O)c1ccc(N=c2scc(C)n2CC)cc1 | 3.55 µM [rising, full curve, poor fit] | – |
| CN(C)c1ccc(C(=O)OCc2ccc(Br)cc2)cc1 | 14.6 µM [rising, partial curve, poor fit] | – |
| CCOC(=O)c1sc(Nc2nc3c(OC)cccc3s2)nc1C | 0.00731 µM [falling, full curve, poor fit] | – |
| COc1cc(/C=C/C(=O)NCc2ccccn2)cc(OC)c1OC | 3.66 µM [rising, partial curve, poor fit] | – |
| Nc1ccc2c3c(cccc13)CC2 | – | 28.2 µM [falling, single point] |
| CCn1ncc(/C=N\NC(=O)c2ccc3c(c2)c(C)c(C)n3Cc2ccccc2)c1C | 29.1 µM [rising, single point] | – |
